These are yes or no findings as the source states them, for the method shown. In cells and extracts the contact can be indirect. Some binding calls cover weakened binding; strength is not graded here. For some of these results: Tags and fused reporters may be left off the sequences shown. Each block holds one molecule with its values, some of them ahead of it.
Columns and labels:
[1] = biological target: T1, ADNP (in HEK293T cells, partner of the β-catenin fragments) (UniProt Q9Z103); assay: co-IP; plasmids co-transfected into HEK293T cells; lysates, Dynabeads Protein G with anti-FLAG, anti-HA or anti-MYC antibody, overnight 4 °C, washes PBS 0.1% Tween
T1 sequence: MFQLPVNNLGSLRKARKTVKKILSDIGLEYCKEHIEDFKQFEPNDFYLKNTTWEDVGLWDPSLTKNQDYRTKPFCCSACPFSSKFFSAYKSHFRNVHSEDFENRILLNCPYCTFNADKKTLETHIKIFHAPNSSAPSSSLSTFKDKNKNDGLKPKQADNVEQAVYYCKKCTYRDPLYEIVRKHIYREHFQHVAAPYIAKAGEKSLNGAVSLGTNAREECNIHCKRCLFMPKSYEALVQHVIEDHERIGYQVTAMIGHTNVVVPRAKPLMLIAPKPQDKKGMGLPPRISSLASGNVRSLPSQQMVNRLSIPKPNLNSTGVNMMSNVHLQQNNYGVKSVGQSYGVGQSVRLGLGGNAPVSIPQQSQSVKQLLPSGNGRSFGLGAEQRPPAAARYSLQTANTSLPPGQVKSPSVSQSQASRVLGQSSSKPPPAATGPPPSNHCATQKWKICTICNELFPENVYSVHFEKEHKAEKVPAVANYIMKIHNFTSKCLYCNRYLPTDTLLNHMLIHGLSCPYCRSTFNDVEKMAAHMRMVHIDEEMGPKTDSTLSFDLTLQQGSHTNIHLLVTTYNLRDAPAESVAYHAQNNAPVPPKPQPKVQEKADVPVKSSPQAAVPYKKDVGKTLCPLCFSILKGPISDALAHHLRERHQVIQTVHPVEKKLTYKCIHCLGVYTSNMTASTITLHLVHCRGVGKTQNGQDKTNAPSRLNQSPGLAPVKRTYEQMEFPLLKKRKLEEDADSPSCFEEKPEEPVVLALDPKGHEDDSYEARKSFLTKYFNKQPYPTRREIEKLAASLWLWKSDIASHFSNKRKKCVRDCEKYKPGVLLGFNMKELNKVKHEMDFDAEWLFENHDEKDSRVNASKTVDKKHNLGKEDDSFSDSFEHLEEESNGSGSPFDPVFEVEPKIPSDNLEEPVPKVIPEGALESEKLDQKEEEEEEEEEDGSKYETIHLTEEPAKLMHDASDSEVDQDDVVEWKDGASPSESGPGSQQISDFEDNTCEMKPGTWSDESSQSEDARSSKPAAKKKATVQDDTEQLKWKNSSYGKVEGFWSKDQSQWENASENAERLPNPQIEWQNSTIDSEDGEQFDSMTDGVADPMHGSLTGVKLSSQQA

Chains of the proteins cited; added tags and fusions are not shown. Lines headed by an entry give the natural chain unless they say otherwise; changes in a name come on top.
UniProt Q02248: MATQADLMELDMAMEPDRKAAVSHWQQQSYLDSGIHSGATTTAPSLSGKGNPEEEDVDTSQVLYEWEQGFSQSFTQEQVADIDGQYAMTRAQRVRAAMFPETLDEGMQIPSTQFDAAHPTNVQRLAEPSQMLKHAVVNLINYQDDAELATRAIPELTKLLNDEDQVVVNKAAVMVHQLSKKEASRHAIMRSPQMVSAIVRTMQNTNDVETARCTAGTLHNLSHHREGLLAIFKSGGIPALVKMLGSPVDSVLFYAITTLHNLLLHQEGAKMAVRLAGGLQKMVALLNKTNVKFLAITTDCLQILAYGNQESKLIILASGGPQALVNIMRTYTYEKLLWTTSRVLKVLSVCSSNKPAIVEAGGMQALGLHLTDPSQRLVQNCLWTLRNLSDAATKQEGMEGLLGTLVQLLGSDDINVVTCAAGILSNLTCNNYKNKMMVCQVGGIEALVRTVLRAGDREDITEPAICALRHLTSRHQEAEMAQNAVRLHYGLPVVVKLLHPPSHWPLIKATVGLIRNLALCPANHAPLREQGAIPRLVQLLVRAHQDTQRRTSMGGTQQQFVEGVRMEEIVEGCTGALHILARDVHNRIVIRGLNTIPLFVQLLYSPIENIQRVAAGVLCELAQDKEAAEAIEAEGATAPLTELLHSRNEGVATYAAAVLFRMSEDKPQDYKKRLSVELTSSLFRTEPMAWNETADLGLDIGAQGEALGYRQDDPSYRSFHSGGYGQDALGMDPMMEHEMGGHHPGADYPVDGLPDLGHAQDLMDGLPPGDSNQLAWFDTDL
UniProt O15169: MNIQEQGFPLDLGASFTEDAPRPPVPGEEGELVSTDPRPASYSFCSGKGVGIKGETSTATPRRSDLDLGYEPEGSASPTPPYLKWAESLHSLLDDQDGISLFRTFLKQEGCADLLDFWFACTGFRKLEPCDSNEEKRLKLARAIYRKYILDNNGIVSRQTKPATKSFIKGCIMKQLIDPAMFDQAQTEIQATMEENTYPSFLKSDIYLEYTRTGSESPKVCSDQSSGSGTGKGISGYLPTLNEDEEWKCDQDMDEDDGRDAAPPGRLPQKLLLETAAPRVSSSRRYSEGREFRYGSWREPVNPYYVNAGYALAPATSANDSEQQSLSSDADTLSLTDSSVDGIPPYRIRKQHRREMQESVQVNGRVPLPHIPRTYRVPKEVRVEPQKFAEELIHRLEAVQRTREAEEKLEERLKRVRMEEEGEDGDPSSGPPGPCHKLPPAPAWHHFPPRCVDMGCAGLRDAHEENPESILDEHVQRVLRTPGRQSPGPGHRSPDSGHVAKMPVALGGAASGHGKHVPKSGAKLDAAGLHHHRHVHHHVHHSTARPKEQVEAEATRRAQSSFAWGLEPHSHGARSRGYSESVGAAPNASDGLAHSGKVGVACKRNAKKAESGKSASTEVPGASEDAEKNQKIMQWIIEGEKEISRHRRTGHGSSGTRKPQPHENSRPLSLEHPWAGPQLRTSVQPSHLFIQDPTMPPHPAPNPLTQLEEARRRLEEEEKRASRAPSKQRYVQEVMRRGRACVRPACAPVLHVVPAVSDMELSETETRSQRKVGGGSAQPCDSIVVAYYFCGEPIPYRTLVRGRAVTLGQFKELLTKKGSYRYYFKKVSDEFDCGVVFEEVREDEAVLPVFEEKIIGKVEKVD

HA-β-catenin = HA-β-catenin (UniProt Q02248); assay: co-IP; competitive protein-binding assay: increasing dose of FLAG-ADNP plasmid co-transfected with MYC-AXIN1 (or APC) and HA-β-catenin into HEK293T; lysates pulled down by HA antibody, WB
[2] = biological target: T2, ADNP (Activity Dependent Neuroprotective Protein), endogenous (mouse (endogenous in mouse R1 ESCs)) (UniProt Q9Z103); assay: co-IP; endogenous proteins; lysates of mouse ESCs and of day 3 ESC-derived neurospheres; Dynabeads Protein G with antibody or IgG, overnight 4 °C, washes PBS 0.1% Tween; IP ADNP then WB β-catenin and IP β-catenin then WB ADNP
T2 sequence: T1 sequence

3×FLAG-ADNP (mouse) = biological target: T3, 3×FLAG-ADNP (mouse) (UniProt Q9Z103); assay: co-IP; lysate of day 3 NPCs from 3×FLAG-ADNP overexpressing Adnp−/− ESCs; FLAG IP, WB β-catenin; Dynabeads Protein G
T3 sequence: T1 sequence

FLAG-ADNP-NAP (mouse) = biological target: T4, FLAG-ADNP-NAP (mouse) (UniProt Q9Z103); assay: co-IP; plasmids co-transfected into HEK293T cells; lysates, Dynabeads Protein G with anti-FLAG, anti-HA or anti-MYC antibody, overnight 4 °C, washes PBS 0.1% Tween
T4 sequence: NAPVSIPQ

[3] = biological target: T5, FLAG-ADNP (1–685), in vitro synthesized (mouse) (UniProt Q9Z103); assay: co-IP; both proteins synthesized in rabbit reticulocyte lysate (TNT), 5–10 μl of each mixed in 300 μl TEN buffer, 30 min room temperature; Dynabeads protein G with anti-FLAG or anti-HA
T5 sequence: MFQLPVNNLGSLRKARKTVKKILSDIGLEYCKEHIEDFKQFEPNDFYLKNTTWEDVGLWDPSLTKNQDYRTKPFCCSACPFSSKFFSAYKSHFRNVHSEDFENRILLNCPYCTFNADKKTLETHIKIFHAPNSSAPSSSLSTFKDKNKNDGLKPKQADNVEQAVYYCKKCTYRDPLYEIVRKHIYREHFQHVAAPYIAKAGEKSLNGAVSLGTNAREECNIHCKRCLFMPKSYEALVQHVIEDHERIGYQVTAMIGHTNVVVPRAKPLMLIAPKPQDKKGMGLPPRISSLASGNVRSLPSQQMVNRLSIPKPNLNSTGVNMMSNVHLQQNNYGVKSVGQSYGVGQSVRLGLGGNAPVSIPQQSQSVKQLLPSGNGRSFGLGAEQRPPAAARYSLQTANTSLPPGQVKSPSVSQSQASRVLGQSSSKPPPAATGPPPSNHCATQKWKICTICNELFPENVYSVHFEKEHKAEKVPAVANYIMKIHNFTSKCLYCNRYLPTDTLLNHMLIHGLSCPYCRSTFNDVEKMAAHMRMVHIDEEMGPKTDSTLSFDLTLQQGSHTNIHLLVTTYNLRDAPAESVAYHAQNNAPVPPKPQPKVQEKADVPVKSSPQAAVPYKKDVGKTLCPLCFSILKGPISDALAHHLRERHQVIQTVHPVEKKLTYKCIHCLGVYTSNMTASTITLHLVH

[4] = biological target: T6, FLAG-Adnpa (zebrafish (Danio rerio)) (UniProt F1QLG5); assay: co-IP; lysate of 24 hpf adnpa−/− adnpb−/− zebrafish embryos injected with mRNA encoding FLAG-Adnpa
T6 sequence: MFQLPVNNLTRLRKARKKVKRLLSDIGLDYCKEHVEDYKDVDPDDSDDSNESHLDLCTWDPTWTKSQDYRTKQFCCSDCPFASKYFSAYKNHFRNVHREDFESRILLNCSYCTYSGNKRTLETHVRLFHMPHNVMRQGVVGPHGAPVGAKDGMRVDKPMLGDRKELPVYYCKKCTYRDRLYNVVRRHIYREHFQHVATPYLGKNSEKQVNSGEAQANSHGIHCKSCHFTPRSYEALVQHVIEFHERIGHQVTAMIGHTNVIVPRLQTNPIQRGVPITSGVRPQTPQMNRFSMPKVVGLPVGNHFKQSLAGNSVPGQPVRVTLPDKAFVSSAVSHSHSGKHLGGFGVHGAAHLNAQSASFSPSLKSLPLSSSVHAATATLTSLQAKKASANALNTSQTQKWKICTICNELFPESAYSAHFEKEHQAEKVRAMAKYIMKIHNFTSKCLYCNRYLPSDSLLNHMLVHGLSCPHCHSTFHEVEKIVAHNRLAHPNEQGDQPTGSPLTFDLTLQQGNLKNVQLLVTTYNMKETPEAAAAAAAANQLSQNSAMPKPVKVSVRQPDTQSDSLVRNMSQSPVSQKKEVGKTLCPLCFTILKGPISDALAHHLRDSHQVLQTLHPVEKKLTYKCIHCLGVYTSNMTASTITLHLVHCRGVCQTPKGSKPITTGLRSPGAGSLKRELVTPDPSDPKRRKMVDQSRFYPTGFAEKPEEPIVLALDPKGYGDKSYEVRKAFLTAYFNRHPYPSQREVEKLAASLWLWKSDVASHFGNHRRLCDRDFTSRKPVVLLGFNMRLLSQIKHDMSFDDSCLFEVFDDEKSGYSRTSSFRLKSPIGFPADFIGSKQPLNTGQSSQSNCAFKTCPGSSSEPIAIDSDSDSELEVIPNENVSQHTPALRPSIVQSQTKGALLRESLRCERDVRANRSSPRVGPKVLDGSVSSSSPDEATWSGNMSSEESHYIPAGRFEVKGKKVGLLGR

Molecule: MYC-AXIN1 (from UniProt O15169 1-862)
binding (HA-β-catenin): binds

Molecule: β-catenin N-terminal fragment (1–150) (from UniProt Q02248 1-150) (domain or fragment)
binding [1]: binds weakly

Molecule: HA-β-catenin (from UniProt Q02248 1-781)
binding (FLAG-ADNP-NAP (mouse)): binds

B1: β-catenin, endogenous, zebrafish (protein, UniProt F1QGH7 1-780)
chain: MATQSDLMELEMAMDPDRKAAVSHWQQQSYLDSGIHSGATTTAPSLSGKGNPEDDDVDNQVLYEWEQGFNQSFNQEQVADIDGQYAMTRAQRVRAAMFPETLDEGMQIPSTQFDSAHPTNVQRLAEPSQMLKHAVVNLINYQDDAELATRAIPELTKLLNDEDQVVVNKAAVMVHQLSKKEASRHAIMRSPQMVSAIVRTMQNTNDVETARCTSGTLHNLSHHREGLLAIFKSGGIPALVKMLGSPVDSVLFYAITTLHNLLLHQEGAKMAVRLAGGLQKMVALLNKTNVKFLAITTDCLQILAYGNQESKLIILASGGPQALVNIMRTYTYEKLLWTTSRVLKVLSVCSSNKPAIVEAGGMQALGLHLTDPSQRLVQNCLWTLRNLSDAATKQEGMEGLLGTLVQLLGSDDINVVTCAAGILSNLTCNNYKNKMMVCQVGGIEALVRTVLRAGDREDITEPAICALRHLTSRHQDAEMAQNAVRLHYGLPVVVKLLHPPSHWPLIKATVGLIRNLALCPANHAPLREQGAIPRLVQLLVRAHQDTQRRTSMGGTQQQFVEGVRMEEIVEGCTGALHILARDIHNRIVIRGLNTIPLFVQLLYSPIENIQRVAAGVLCELAQDKEAAEAIEAEGATAPLTELLHSRNEGVATYAAAVLFRMSEDKPQDYKKRLSVELTSSLFRTEPMTWNETGDLGLDIGAQGEPLGYRQDDPSYRSFHSGGYGQDAMGMDPMMEHEMAGHHPGPDYPVDGLPDLGHTQDLIDGLPPGDSNQLAWFDTDL
binding [4]: binds

Next, values leading:

binding [1]: binds weakly
Molecule: β-catenin C-terminal fragment (667–781) (from UniProt Q02248 667-781) (domain or fragment)

binding [2]: binds | binding (3×FLAG-ADNP (mouse)): binds
Molecule: β-catenin, endogenous (from UniProt Q02248 1-781)

binding [1]: binds
Molecule: FLAG-β-catenin (151–666) (from UniProt Q02248 151-666) (domain or fragment)

binding [3]: binds
Molecule: HA-β-catenin, in vitro synthesized (from UniProt Q02248 1-781)

binding (HA-β-catenin): binds
B2: FLAG-ADNP (HEK293T) (protein, UniProt Q9Z103 1-1108)
chain: T1 sequence
